Substitutions are numbered along the chain they refer to. These are yes or no findings as the source states them, for the method shown. Some entries that bind do so weakly or less than the wild type.

The labels stand for the following.
B1: scfv fragment of ADI-37542 (scFv, V domains shown)
VH: QVQLQESGPGLVKPSETLSLTCAVSGYSISEGYYWGWIRQPPGKGLEWIGSIYHTGFTYYNPSLKSRVTISVDTSKNQFSLKLSSVTAADTAVYYCARASIYTPPPEYFQHWGQGTLVTVSS
VL: DIQMTQSPSTLSASVGDRVTITCRASQSISSWLAWYQQKPGKAPKLLIYDASSLESGVPSRFSGSGSGTEFTLTISSLQPDDFATYYCQQSRIYSTFGGGTKVEIK
B2: scfv fragment of ADI-37543 (scFv, V domains shown)
VH: B1 VH with E31S, G36A, Y53F, T55S, Y59F
VL: B1 VL
B3: scfv fragment of ADI-37503 (scFv, V domains shown)
VH: EVQLLESGGGLVQPGGSLRLSCAASGFTFSNYAMSWVRQAPGKGLEWVSAISGRASSTYYADSVKGRFTISRDNSKNTLYLQMNSLRAEDTAVYYCARGGPYGSGSYWDTFDYWGQGTLVTVSS
VL: EIVMTQSPATLSVSPGERATLSCRASQSVSSNLAWYQQKPGQAPRLLIYGASTRATGIPARFSGSGSGTEFTLTISSLQSEDFAVYYCQQYTNHYTFGGGTKVEIK
B4: scfv fragment of ADI-37504 (scFv, V domains shown)
VH: B3 VH with S30H, R54T, A55G, S56R, S57A
VL: B3 VL
B5: scfv fragment of ADI-37507 (scFv, V domains shown)
VH: B3 VH with S30L, S35A, S56T
VL: B3 VL
B6: scfv fragment of ADI-37505 (scFv, V domains shown)
VH: B3 VH with E1Q, L5V, S35T, A55G, S56T, S57A
VL: B3 VL
B7: scfv fragment of ADI-37506 (scFv, V domains shown)
VH: B3 VH with Y32L, S56T
VL: B3 VL
B8: scfv fragment of ADI-37513 (scFv, V domains shown)
VH: EVQLLESGGGVVQPGRSLRLSCAASGFTFNFYGMHWVRQAPGKGLEWVAVINDEGINKYYADSVKGRFTISRDNSKNTLYLQMNSLRAEDTAVYYCARGGARYPIAFDIWGQGTMVTVSS
VL: DIQLTQSPSSVSASVGDRVTITCRASQDISSWLAWYQQKPGKAPKLLIYAASSLQSGVPSRFSGSGSGTDFTLTISSLQPEDFATYYCQQANDFPITFGGGTKVEIK
B9: scfv fragment of ADI-37522 (scFv, V domains shown)
VH: B8 VH with E1Q, L5V, N30S, F31H, N52S, I56S, G100W, A101L
VL: B8 VL

In this assay the target is cynomolgus monkey CD73 antigen (cynomolgus monkey). As to the kind of experiment: ForteBio BLI, scFv. In general terms: Biolayer interferometry detects binding as a change in optical thickness at a sensor tip.
For B1, the binding entry is “binds”.
The result for B2 reads “binds”.
B3: the binding entry is on record as “binds”.
The result for B4 reads “binds”; that for B5, “binds”.
The result for B6 reads “binds”.
As for B7, the entry is “binds”; as for B8, “binds”.
Regarding B9, the binding result is reported as “binds”.

Values taken from patent publication US20230312741A1.
